According to PubChem BioAssay AID487 (Columbia University Molecular Screening Center, 2006):
This is one part of the list.

Assay: endothelial E-selectin expression blockers – imaging, HUVEC, immunofluorescence, MLSMR starter and 10KST1 sets, primary screen (AID 487);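 note: 100% = median nuclei count of all wells on the same plate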
Details: HUVEC TNFalpha-induced E-selectin immunofluorescence imaging; measured here: cell number, toxicity; at 2 µM

Row | SMILES | nuclei count [%]
1 | CCN(CC)CC(O)COC(=O)C(O)(c1ccccc1)C1CCCCC1 (stereo not drawn) | 189
2 | CP(=O)(Nc1ccccn1)Oc1ccccc1 (stereo not drawn) | 78.3
3 | O=P(Nc1nccs1)(c1ccccc1)c1ccccc1 | 130
4 | CP(=O)(Nc1ccc2c(c1)OCCO2)Oc1ccccc1 (stereo not drawn) | 116
5 | CN(C)CCOC(=O)C(O)(c1ccccc1)C1CCCCC1 (stereo not drawn) | 97.8
6 | Cc1nn(-c2ccccc2)c2c1P(=O)(N1CCOCC1)N(C)C(c1ccccc1)=N2 (stereo not drawn) | 110
7 | Cc1ccc(OCC(=O)OC2CN3CCC2CC3)cc1 (stereo not drawn) | 162
8 | Cc1cccc(OCC(=O)OC2CN3CCC2CC3)c1 (stereo not drawn) | 142
9 | Cc1ccc(C)c(NP(C)(=O)Oc2ccccc2)c1 (stereo not drawn) | 109
10 | CCOP1(=S)c2c(C)nn(CCC#N)c2N=C(c2ccccc2F)N1C (stereo not drawn) | 111
11 | O=C(COc1ccccc1)OC1CN2CCC1CC2 (stereo not drawn) | 85
12 | COP1(=S)c2c(C)nn(CCC#N)c2N=C(c2ccc(F)cc2)N1C (stereo not drawn) | 109
13 | CP(=S)(Nn1cnnc1)Oc1ccccc1 (stereo not drawn) | 84.3
